Assay results reported in the supplement of paper PMC7666118.
This is one part of the list.

Chains of the proteins cited; added tags and fusions are not shown. Lines headed by an entry give the natural chain unless they say otherwise; changes in a name come on top.
UniProt Q8IYW5, whole entry: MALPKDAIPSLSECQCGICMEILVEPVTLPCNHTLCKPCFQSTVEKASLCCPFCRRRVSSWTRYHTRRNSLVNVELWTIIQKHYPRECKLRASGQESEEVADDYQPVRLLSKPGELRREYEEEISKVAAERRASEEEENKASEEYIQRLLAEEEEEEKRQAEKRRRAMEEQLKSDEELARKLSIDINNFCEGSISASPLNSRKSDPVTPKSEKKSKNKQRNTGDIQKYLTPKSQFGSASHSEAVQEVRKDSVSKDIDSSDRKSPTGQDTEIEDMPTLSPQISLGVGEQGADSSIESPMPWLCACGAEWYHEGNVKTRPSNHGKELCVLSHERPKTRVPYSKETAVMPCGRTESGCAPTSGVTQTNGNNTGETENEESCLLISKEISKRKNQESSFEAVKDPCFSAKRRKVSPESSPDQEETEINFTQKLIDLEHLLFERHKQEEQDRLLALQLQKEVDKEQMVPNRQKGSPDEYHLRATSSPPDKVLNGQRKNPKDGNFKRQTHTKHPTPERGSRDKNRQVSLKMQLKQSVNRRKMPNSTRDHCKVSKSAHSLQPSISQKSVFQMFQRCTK
UniProt Q9UPN6: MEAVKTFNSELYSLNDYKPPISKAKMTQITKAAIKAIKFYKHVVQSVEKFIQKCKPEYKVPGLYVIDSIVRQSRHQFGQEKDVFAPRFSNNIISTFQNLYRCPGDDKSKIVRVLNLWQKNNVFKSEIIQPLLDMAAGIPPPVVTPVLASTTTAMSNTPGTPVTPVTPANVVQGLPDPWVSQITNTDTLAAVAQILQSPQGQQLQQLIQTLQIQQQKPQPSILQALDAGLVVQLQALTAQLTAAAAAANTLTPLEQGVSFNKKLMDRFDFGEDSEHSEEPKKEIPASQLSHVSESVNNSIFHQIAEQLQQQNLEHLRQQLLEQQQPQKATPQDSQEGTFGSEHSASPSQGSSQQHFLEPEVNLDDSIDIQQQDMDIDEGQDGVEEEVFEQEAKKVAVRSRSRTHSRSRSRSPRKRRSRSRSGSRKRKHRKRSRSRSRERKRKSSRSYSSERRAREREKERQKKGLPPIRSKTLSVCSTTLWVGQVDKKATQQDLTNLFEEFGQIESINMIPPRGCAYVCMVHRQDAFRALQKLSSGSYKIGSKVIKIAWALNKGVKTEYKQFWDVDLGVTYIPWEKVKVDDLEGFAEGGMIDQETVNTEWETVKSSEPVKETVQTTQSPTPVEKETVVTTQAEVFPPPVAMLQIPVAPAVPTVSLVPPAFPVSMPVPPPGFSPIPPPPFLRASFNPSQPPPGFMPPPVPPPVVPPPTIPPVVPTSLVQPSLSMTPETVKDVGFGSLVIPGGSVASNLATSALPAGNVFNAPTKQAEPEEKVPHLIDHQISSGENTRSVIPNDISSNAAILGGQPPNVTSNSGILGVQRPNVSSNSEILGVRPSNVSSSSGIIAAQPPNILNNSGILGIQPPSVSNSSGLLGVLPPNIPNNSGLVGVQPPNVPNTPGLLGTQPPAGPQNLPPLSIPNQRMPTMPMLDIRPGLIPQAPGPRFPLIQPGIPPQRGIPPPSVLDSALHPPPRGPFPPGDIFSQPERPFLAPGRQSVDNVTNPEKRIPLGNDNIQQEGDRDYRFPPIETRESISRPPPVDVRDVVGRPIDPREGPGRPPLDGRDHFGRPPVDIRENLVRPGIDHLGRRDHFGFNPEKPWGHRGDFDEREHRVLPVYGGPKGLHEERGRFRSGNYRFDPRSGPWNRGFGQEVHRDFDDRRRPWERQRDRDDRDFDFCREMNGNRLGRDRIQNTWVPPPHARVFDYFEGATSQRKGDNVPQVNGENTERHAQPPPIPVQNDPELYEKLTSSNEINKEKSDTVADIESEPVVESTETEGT
UniProt Q5T160: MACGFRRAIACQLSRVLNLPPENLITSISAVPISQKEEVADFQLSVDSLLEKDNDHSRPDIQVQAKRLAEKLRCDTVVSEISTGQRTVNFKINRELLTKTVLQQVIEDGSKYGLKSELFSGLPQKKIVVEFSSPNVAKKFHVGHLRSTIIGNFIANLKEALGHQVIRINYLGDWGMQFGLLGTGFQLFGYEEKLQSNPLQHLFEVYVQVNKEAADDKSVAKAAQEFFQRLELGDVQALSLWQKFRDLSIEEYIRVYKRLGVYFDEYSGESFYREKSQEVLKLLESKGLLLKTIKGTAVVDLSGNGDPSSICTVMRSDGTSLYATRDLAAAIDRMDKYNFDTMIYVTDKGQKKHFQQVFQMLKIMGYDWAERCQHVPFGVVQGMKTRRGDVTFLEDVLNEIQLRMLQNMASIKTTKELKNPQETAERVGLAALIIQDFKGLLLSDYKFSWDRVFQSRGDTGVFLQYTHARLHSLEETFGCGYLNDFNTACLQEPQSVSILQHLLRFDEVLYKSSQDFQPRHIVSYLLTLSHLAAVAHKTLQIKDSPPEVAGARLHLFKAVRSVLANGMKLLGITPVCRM
UniProt P09417: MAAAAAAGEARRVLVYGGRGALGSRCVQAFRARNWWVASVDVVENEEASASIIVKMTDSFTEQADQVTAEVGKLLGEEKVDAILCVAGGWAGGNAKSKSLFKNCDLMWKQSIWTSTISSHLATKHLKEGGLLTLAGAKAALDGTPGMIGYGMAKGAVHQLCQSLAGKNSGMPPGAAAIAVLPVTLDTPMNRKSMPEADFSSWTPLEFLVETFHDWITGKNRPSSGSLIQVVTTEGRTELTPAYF
UniProt P51148: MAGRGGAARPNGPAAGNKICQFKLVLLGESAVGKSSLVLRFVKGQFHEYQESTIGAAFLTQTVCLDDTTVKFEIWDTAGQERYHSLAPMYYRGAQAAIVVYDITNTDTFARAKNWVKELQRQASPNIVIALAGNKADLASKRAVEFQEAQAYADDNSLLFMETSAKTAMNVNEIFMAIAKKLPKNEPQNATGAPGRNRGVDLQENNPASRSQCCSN
UniProt P32322: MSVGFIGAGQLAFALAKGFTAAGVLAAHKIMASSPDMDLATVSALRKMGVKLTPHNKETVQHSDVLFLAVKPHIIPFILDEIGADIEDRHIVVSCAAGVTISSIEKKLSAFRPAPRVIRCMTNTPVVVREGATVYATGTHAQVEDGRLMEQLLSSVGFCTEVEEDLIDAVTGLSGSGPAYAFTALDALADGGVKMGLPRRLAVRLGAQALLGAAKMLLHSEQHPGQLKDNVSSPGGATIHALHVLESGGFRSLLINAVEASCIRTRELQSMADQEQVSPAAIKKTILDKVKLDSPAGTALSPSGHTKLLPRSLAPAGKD
UniProt Q8TB24: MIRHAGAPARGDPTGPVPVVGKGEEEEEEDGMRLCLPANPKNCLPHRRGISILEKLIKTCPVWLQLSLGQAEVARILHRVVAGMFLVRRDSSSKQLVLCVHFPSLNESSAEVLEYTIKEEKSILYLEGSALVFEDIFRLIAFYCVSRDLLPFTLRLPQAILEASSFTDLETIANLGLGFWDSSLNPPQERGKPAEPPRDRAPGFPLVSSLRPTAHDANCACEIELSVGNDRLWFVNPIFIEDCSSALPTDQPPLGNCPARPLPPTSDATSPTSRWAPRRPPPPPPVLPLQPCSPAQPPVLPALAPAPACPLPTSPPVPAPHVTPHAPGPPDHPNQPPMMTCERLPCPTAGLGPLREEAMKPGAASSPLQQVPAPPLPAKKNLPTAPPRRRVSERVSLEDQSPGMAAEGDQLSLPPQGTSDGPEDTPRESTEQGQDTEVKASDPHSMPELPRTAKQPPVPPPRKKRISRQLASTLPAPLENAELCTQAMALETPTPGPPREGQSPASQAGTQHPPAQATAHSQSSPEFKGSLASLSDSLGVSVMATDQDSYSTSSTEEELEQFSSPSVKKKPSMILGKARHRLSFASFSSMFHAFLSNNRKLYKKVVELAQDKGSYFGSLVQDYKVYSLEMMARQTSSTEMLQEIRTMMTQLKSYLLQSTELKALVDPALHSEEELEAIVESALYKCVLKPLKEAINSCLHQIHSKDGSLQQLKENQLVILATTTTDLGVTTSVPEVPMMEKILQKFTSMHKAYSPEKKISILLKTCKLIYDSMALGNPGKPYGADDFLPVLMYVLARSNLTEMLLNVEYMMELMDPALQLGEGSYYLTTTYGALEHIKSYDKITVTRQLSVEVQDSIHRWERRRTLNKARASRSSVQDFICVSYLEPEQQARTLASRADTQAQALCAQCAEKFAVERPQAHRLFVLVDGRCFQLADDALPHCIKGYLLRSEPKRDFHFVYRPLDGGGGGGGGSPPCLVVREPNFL
UniProt Q86YV0: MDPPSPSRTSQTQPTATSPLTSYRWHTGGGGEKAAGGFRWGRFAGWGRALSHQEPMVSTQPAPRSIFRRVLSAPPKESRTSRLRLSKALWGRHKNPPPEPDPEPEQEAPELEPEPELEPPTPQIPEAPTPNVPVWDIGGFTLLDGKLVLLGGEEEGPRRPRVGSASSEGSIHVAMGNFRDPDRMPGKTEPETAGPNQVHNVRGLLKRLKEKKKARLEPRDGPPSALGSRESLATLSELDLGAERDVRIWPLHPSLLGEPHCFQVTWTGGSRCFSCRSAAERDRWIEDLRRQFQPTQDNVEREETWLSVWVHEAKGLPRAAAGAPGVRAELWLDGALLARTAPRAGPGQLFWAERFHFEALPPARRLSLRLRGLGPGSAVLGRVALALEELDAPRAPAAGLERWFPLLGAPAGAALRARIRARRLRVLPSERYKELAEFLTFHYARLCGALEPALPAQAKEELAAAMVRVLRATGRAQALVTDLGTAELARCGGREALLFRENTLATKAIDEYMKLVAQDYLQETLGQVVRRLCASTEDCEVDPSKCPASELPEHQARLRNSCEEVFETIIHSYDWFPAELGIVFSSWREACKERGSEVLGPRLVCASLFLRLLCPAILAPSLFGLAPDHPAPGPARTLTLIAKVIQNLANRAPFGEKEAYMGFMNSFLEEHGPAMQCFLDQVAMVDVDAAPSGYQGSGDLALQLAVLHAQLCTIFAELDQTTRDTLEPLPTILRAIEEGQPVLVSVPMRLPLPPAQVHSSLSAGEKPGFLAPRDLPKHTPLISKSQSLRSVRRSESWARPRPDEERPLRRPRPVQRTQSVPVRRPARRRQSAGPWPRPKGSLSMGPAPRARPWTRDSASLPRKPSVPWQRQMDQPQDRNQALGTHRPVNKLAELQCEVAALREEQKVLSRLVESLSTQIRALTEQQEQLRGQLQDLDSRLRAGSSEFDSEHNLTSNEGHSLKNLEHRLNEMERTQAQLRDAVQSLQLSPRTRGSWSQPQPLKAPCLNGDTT
UniProt Q9Y606: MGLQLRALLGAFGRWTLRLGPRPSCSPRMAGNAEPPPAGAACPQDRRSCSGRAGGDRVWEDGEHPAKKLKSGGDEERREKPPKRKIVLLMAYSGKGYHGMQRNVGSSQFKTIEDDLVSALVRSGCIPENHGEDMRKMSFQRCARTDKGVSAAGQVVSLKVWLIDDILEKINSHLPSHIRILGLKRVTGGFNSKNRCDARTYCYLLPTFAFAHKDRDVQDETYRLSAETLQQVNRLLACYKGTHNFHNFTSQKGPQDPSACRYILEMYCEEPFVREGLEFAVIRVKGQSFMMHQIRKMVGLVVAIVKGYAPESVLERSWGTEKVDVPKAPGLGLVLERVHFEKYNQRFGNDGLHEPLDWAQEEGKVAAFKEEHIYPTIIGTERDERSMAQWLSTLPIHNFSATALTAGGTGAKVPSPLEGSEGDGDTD
UniProt Q6ZS11: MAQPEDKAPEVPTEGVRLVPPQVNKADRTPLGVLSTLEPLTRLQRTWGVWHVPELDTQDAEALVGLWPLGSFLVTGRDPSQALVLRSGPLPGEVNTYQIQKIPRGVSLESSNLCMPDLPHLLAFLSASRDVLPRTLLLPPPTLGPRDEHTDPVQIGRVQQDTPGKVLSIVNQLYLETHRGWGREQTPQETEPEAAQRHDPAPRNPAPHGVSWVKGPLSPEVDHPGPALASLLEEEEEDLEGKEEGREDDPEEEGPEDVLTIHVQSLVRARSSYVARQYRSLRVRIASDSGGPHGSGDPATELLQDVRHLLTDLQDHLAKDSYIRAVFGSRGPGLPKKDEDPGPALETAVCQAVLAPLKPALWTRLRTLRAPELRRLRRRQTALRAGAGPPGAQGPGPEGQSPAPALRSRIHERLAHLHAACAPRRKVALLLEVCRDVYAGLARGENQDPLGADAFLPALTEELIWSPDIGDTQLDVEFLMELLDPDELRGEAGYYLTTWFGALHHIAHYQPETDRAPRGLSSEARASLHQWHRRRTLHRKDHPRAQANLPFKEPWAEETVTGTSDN
UniProt Q6NTF9: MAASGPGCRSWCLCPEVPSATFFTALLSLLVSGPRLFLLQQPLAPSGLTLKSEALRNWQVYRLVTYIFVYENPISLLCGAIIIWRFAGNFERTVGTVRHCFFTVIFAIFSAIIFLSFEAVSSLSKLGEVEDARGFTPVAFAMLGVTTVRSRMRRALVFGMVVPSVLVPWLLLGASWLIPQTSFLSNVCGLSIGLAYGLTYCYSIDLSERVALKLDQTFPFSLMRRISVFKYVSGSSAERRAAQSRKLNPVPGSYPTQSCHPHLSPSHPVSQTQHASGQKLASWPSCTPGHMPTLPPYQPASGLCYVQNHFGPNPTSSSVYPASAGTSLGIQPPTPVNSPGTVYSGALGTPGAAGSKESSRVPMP

Compound: COc1ccc(Cn2ccc3cc(C)c(C(=O)NO)cc32)cc1
Assay: dose-dependent thermal stabilisation call (2D-TPP, DLPTP, 10% FDR) (binary (1 = stabilised)); higher = stabilised by the compound
Details: system: HL-60 intact cells; concentration range 0.04-10 µM
Experimental: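 2D thermal proteome profiling in intact HL-60 cells treated with BRD-3811 (0, 0.04, 0.29, 2, 10 uM) for 90 min at 37 C, then heated 3 min at one of 12 temperatures (42-63.9 C). Soluble protein was quantified by TMT10 MS. The value is the DLPTP call of the paper: dose-dependent thermal stabilisation over all temperatures at 10% FDR (F-test of a dose-response against a flat model); one experiment, one call per tested protein.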

Row | Target | dose-dependent thermal stabilisation call
1 | RNF168 (UniProt Q8IYW5) | inactive: 0
2 | RNF13 (UniProt O43567) | inactive: 0
3 | RAN (UniProt P62826) | inactive: 0
4 | PUS7 (UniProt Q96PZ0) | inactive: 0
5 | RBM16 (UniProt Q9UPN6) | inactive: 0
6 | RECQL (UniProt P46063) | inactive: 0
7 | R3HCC1 (UniProt Q9Y3T6) | inactive: 0
8 | RGP1 (UniProt Q92546) | inactive: 0
9 | RFWD2 (UniProt Q8NHY2) | inactive: 0
10 | RMND1 (UniProt Q9NWS8) | inactive: 0
11 | RBBP6 (UniProt Q7Z6E9) | inactive: 0
12 | RARS2 (UniProt Q5T160) | inactive: 0
13 | QDPR (UniProt P09417) | inactive: 0
14 | RAB5C (UniProt P51148) | inactive: 0
15 | RNASEH2B (UniProt Q5TBB1) | inactive: 0
16 | RAC1 (UniProt P63000) | inactive: 0
17 | RAP2C (UniProt Q9Y3L5) | inactive: 0
18 | RAB1B (UniProt Q9H0U4) | inactive: 0

Records 17 through 18 of the list above:
Row | Target | dose-dependent thermal stabilisation call
17 | RAP2C (UniProt Q9Y3L5) | inactive: 0
18 | RAB1B (UniProt Q9H0U4) | inactive: 0

Additional results:

Row | Target | dose-dependent thermal stabilisation call
19 | PYCR1 (UniProt P32322) | inactive: 0
20 | RIN3 (UniProt Q8TB24) | inactive: 0
21 | RAB2A (UniProt P61019) | inactive: 0
22 | RASSF2 (UniProt P50749) | inactive: 0
23 | RBBP5 (UniProt Q15291) | inactive: 0
24 | RASAL3 (UniProt Q86YV0) | inactive: 0
25 | RDBP (UniProt P18615) | inactive: 0
26 | RAD23B (UniProt P54727) | inactive: 0
27 | RAB3GAP2 (UniProt Q9H2M9) | inactive: 0
28 | PUS1 (UniProt Q9Y606) | inactive: 0
29 | RAB23 (UniProt Q9ULC3) | inactive: 0
30 | RNF185 (UniProt Q96GF1) | inactive: 0
31 | RBMX (UniProt P38159) | inactive: 0
32 | REXO2 (UniProt Q9Y3B8) | inactive: 0
33 | RNF181 (UniProt Q9P0P0) | inactive: 0
34 | RFC1 (UniProt P35251) | inactive: 0
35 | RINL (UniProt Q6ZS11) | inactive: 0
36 | RHBDD2 (UniProt Q6NTF9) | inactive: 0
